The values below come from paper PMC10783571.

Sequences of proteins named here, by UniProt entry; tags and fusion partners are left off. A change or cut given only in a name is not applied to a line headed by its entry. Residues count along the entry.
UniProt Q96AE7: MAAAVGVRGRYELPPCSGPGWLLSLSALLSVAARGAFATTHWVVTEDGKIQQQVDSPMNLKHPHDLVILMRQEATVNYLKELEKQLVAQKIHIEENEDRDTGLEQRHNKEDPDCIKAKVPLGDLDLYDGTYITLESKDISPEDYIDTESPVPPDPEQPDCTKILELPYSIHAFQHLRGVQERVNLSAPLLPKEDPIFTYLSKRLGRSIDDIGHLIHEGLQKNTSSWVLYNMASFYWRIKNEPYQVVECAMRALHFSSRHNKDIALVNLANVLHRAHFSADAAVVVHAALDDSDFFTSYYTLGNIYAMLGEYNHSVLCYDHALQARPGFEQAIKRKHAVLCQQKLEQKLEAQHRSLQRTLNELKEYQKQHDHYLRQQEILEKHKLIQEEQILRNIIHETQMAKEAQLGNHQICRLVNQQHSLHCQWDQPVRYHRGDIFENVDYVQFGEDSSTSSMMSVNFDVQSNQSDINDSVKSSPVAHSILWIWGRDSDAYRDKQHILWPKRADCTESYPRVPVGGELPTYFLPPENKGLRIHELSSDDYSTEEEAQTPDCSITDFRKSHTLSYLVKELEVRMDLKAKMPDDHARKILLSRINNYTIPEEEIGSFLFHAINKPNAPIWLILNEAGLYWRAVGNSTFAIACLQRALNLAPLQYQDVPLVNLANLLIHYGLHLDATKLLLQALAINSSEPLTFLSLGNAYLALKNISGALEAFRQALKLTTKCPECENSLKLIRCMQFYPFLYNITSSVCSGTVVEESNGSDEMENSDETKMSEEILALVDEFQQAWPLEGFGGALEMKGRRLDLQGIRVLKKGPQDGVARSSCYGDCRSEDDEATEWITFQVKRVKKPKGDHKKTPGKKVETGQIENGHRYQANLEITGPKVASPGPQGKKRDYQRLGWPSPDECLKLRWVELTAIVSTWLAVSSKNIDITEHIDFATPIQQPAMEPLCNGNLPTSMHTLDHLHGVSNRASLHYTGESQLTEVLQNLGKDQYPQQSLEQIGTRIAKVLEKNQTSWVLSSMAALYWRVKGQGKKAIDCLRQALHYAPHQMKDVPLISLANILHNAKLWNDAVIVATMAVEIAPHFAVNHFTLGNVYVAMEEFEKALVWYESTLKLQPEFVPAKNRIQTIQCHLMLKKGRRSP
UniProt Q92545, residues 23-1883: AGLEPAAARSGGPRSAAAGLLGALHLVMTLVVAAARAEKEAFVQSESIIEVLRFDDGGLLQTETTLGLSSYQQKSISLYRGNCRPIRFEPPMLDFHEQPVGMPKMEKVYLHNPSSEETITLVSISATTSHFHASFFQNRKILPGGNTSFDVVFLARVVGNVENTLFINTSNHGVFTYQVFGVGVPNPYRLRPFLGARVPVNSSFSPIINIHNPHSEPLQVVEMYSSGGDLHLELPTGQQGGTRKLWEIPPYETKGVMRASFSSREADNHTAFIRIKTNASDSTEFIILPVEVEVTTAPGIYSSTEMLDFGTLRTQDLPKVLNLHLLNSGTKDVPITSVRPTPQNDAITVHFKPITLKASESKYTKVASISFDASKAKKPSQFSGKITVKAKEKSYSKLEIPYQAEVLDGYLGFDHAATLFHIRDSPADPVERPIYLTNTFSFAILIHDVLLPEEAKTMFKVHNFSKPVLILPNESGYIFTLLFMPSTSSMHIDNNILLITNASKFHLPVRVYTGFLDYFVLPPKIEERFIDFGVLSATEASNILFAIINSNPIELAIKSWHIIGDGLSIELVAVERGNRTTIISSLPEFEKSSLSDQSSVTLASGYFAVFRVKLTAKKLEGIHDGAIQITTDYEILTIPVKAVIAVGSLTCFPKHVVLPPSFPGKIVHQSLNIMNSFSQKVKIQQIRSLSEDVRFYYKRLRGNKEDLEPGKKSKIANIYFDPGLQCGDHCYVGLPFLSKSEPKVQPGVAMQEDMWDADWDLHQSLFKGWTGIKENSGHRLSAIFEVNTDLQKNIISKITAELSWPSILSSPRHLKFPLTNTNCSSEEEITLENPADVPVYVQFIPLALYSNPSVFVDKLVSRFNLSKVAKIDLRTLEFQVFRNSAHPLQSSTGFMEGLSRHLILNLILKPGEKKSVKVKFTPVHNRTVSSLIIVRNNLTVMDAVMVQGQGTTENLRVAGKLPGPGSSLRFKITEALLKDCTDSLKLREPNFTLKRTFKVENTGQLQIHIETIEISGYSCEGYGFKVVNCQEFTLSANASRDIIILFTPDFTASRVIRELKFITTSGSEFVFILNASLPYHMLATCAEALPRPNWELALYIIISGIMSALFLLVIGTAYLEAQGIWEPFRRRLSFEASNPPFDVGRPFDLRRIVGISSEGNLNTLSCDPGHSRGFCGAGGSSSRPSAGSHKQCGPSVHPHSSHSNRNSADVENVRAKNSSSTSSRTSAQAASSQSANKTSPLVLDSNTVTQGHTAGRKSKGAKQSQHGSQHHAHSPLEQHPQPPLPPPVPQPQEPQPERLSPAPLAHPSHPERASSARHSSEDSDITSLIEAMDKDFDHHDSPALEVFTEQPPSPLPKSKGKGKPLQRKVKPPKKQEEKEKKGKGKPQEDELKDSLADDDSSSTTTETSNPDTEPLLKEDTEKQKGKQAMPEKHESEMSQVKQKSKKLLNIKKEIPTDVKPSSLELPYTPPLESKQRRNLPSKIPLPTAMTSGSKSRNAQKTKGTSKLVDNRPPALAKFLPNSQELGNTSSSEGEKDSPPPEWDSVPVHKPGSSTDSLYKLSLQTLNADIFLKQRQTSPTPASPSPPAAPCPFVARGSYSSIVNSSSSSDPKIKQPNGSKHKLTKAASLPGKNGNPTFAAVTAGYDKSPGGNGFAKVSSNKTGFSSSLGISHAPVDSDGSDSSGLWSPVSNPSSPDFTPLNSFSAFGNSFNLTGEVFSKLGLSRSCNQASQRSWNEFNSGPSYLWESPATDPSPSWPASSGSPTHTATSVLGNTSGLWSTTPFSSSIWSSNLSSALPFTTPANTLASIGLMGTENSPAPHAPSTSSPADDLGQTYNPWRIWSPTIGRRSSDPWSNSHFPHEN

This assay concerns the target TTC17.X1 with a C-terminal 3× FLAG tag (human) (UniProt Q96AE7). Briefly: affinity purification with mass spectrometry; TTC17 with C-terminal 3xFLAG transfected into TTC17-/- HEK cells, lysed 24 h later in MNT buffer (0.5% Triton X-100, pH 7.5); immunoprecipitated with FLAG-M2 antibody overnight at 4 °C; eluted with 200 mM glycine pH 11; LC-MS/MS; untransfected cells as background control.

These are yes or no findings as the source states them, for the method shown. Binding seen in cells or lysates may run through a third protein. A yes stands for co-enrichment or nearness to the bait. Other partners may have been found.

“transmembrane protein 131 (from UniProt Q92545 23-1883)”: the binding entry is listed as “binds”.

B1: TTC13 (protein, UniProt Q8NBP0 1-860)
chain: MAPAGCCCCCCFWGGAVAAAGAARRVLLLLLLGVLSAGLRPGALATEHYSPLSLLKQELQHRQQQEAPAGGGGCSPQSGDWGDQYSAECGESSFLNFHDSDCEPKGSSPCDSLLSLNTEKILSQAKSIAEQKRFPFATDNDSTNEELAIAYVLIGSGLYDEAIRHFSTMLQEEPDLVSAIYGRGIAYGKKGLHDIKNAELALFELSRVITLEPDRPEVFEQRAEILSPLGRINEAVNDLTKAIQLQPSARLYRHRGTLYFISEDYATAHEDFQQSLELNKNQPIAMLYKGLTFFHRGLLKEAIESFKEALKQKVDFIDAYKSLGQAYRELGNFEAATESFQKALLLNQNHVQTLQLRGMMLYHHGSLQEALKNFKRCLQLEPYNEVCQYMKGLSHVAMGQFYEGIKAQTKVMLNDPLPGQKASPEYLKVKYLREYSRYLHAHLDTPLTEYNIDVDLPGSFKDHWAKNLPFLIEDYEEQPGLQPHIKDVLHQNFESYKPEVQELICVADRLGSLMQYETPGFLPNKRIHRAMGLAALEVMQAVQRTWTNSKVRMNGKTRLMQWRDMFDIAVKWRRIADPDQPVLWLDQMPARSLSRGFNNHINLIRGQVINMRYLEYFEKILHFIKDRILVYHGANNPKGLLEVREALEKVHKVEDLLPIMKQFNTKTKDGFTVNTKVPSLKDQGKEYDGFTITITGDKVGNILFSVETQTTEERTQLYHAEIDALYKDLTAKGKVLILSSEFGEADAVCNLILSLVYYFYNLMPLSRGSSVIAYSVIVGALMASGKEVAGKIPKGKLVDFEAMTAPGSEAFSKVAKSWMNLKSISPSYKTLPSVSETFPTLRSMIEVLNTDSSPRCLKKL
B1: the binding entry is “binds”.
